The assay deals with BDF1 mice, Adenocarcinoma 755 s.c., tumor weight T/C. In words: NCI In Vivo Anticancer Drug Screen. Data for tumor model Adenocarcinoma 755 (subcutaneous) in B6D2F1 (BDF1) mice. As to conditions: T/C endpoint: mean tumor weight, higher T/C = larger tumour; for T/C: evaluated on day 12. A digest of the protocol:
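Values express treated (T) relative to vehicle-dosed control (C) animals, based on survival or tumour size measured after compound treatment of mice bearing a transplanted tumour.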

Where [1] appears, read: dose: 176.0 mg/kg/injection, schedule: Q01DX011 (ip), vehicle: methylcellulose (MC).
The mark [2] stands for this setting: dose: 60.0 mg/kg/injection, schedule: Q01DX011 (ip), vehicle: carboxymethylcellulose (CMC).
The mark [3] stands for this setting: dose: 120.0 mg/kg/injection, schedule: Q01DX011 (ip), vehicle: carboxymethylcellulose (CMC).
The mark [4] stands for this setting: dose: 240.0 mg/kg/injection, schedule: Q01DX011 (ip), vehicle: carboxymethylcellulose (CMC).
[5] abbreviates: dose: 60.0 mg/kg/injection, schedule: Q01DX011 (ip), vehicle: methylcellulose (MC).
Setting [6] is: dose: 15.0 mg/kg/injection, schedule: Q01DX011 (ip), vehicle: methylcellulose (MC).

The structures appear in SMILES notation. The list shows only some results of the screen, not a fair sample: it gathers tests that were run many times, whatever their T/C, doses with no T/C, and many T/C values between a quarter and a half above the control. Further doses and runs are listed elsewhere. T/C gives the treated animals as a percentage of the vehicle group. Schedule codes are those of the source, taken here to give the interval after Q, in days (D) or hours (H), and the number of doses after X. Some T/C values are followed by the survivors on the day toxicity was checked, most often the fifth; without a count, all were alive then. Some entries give survivors of the animals treated and no T/C: the source files T/C as zero there, which appears to mark a toxic dose or a test without result, not a measured value. Counts of survivors are from the toxicity check (mostly the fifth day) where no day follows; animals may have died later. Some entries hold several experiments; the values are given in rising order. Some schedule codes hold Z or #, which are not explained here.

In the case of `O=C1C=CC(=O)O1` (tested in a mixture with another compound), the survivor count is given as 6 of 10 (dose: 45.0 mg/kg/injection, schedule: Q01DX011 (ip), vehicle: saline) and 3 of 10 (dose: 90.0 mg/kg/injection, schedule: Q01DX011 (ip), vehicle: saline).

For `CCCCC(CCCC)(C(=O)OCC)C(=O)OCC`, where the note is “dose: 325.0 mg/kg/injection, schedule: Q01DX011 (ip), vehicle: methylcellulose (MC)”, the survivor count is reported as 6 of 10.

With `CCCCNc1nc(N)nc(Nc2ccc(Br)cc2)c1N=O`, under “dose: 500.0 mg/kg/injection, schedule: Q01DX011 (ip), vehicle: methylcellulose (MC)”, the survivor count is reported as 5 of 10.

Regarding `CS(=O)(=O)OCCC(=O)N1CCN(C(=O)CCOS(C)(=O)=O)CC1`, the survivor count is reported as 6 of 10 (dose: 18.75 mg/kg/injection, schedule: Q01DX011 (ip), vehicle: methylcellulose (MC)); 4 of 10 (dose: 50.0 mg/kg/injection, schedule: Q01DX011 (ip), vehicle: methylcellulose (MC)); 2 of 10 (dose: 75.0 mg/kg/injection, schedule: Q01DX011 (ip), vehicle: methylcellulose (MC)); 4 of 10 (dose: 76.0 mg/kg/injection, schedule: Q01DX011 (ip), vehicle: methylcellulose (MC)); 3 of 10 (dose: 113.0 mg/kg/injection, schedule: Q01DX011 (ip), vehicle: methylcellulose (MC)); 2 of 10 (dose: 170.0 mg/kg/injection, schedule: Q01DX011 (ip), vehicle: methylcellulose (MC)). The survivor count under setting [1] was 2 of 10.

With `CN(C)S(=O)(=O)c1ncnc2nc[nH]c12`, the T/C reads like this: (dose: 2.0 mg/kg/injection, schedule: Q01DX011 (ip), vehicle: other) 138 % of control [9 of 10 alive]; (dose: 8.0 mg/kg/injection, schedule: Q01DX011 (ip), vehicle: other) 126 % of control [9 of 10 alive].

Consider `CCOC(O)C(F)(F)F` (stereo not given), for which the survivor count under setting [1] was 3 of 10 and the survivor count (dose: 200.0 mg/kg/injection, schedule: Q01DX011 (ip), vehicle: carboxymethylcellulose (CMC)) is 0 of 10.

As for `CCCCNc1cc(=O)[nH]c(N)n1`, the survivor count (dose: 165.0 mg/kg/injection, schedule: Q01DX011 (ip), vehicle: methylcellulose (MC)) is 6 of 10.

Turning to `Cn1c(N)c(N=O)c(=O)n(C)c1=O`, the survivor count by setting is: (dose: 20.0 mg/kg/injection, schedule: Q01DX011 (ip), vehicle: water) 4 of 10; (dose: 40.0 mg/kg/injection, schedule: Q01DX011 (ip), vehicle: water) 3 of 10; (dose: 80.0 mg/kg/injection, schedule: Q01DX011 (ip), vehicle: water) 3 of 10; (dose: 400.0 mg/kg/injection, schedule: Q01DX011 (ip), vehicle: carboxymethylcellulose (CMC)) 1 of 10; (dose: 600.0 mg/kg/injection, schedule: Q01DX011 (ip), vehicle: carboxymethylcellulose (CMC)) 1 of 10; (dose: 700.0 mg/kg/injection, schedule: Q01DX011 (oral), vehicle: methylcellulose (MC)) 6 of 10. Also, the survivor count reads like this: (dose: 2100.0 mg/kg/injection, schedule: Q01DX011 (oral), vehicle: methylcellulose (MC)) 5 of 16; (dose: 2800.0 mg/kg/injection, schedule: Q01DX011 (oral), vehicle: methylcellulose (MC)) 7 of 16. In addition, the T/C by setting is: (dose: 125.0 mg/kg/injection, schedule: Q01DX011 (ip), vehicle: carboxymethylcellulose (CMC)) 139 % of control; (dose: 175.0 mg/kg/injection, schedule: Q01DX011 (oral), vehicle: methylcellulose (MC)) 135 % of control [8 of 10 alive]; (dose: 350.0 mg/kg/injection, schedule: Q01DX011 (oral), vehicle: methylcellulose (MC)) 136 % of control [9 of 10 alive].

`Nc1[nH]c(=O)[nH]c(=O)c1C(=O)CCl`: the survivor count is 5 of 10 under setting [2], 1 of 10 under setting [3] and 0 of 10 under setting [4].

Turning to `C/C(=N\NC(=O)c1ccncc1)c1ccc(F)cc1`, the survivor count is recorded as 2 of 10 (dose: 30.0 mg/kg/injection, schedule: Q01DX011 (ip), vehicle: methylcellulose (MC)) and 4 of 10 under setting [5].

As to `Cn1c(N)c(C(=O)CCl)c(=O)n(C)c1=O`, the survivor count runs as follows: under setting [2], 2 of 10; under setting [3], 0 of 10; under setting [4], 0 of 10.

Turning to `O=c1[nH]cnc2c1ncn2C1CCCC1`, the T/C is, setting by setting: (dose: 36.25 mg/kg/injection, schedule: Q01DX011 (oral), vehicle: carboxymethylcellulose (CMC)) 130 % of control; (dose: 72.5 mg/kg/injection, schedule: Q01DX011 (oral), vehicle: carboxymethylcellulose (CMC)) 143 % of control [9 of 10 alive]; (dose: 145.0 mg/kg/injection, schedule: Q01DX011 (oral), vehicle: carboxymethylcellulose (CMC)) 127 % of control [8 of 10 alive]; (dose: 290.0 mg/kg/injection, schedule: Q01DX011 (oral), vehicle: carboxymethylcellulose (CMC)) 145 % of control [9 of 10 alive]. In addition, under “dose: 450.0 mg/kg/injection, schedule: Q01DX001 (ip), vehicle: carboxymethylcellulose (CMC)”, the survivor count was 5 of 10.

Consider `CC(C)n1cnc2c(Cl)ncnc21`, for which the survivor count (dose: 250.0 mg/kg/injection, schedule: Q01DX011 (ip), vehicle: carboxymethylcellulose (CMC)) is 4 of 10.

As for `[I][Hg][CH2]C1COC([CH2][Hg][I])CO1` (stereo not given), the survivor count was 2 of 10 (dose: 10.0 mg/kg/injection, schedule: Q#A X022 (ip), vehicle: carboxymethylcellulose (CMC)); 5 of 10 under setting [6]; 6 of 10 (dose: 55.0 mg/kg/injection, schedule: Q07DX002 (ip), vehicle: carboxymethylcellulose (CMC)); 6 of 10 under setting [5]; 0 of 10 (dose: 75.0 mg/kg/injection, schedule: Q03DX004 (ip), vehicle: carboxymethylcellulose (CMC)); 6 of 10 (dose: 85.0 mg/kg/injection, schedule: Q01DX001 (ip), vehicle: carboxymethylcellulose (CMC)). Besides, the survivor count is, setting by setting: (dose: 85.0 mg/kg/injection, schedule: Q07DX002 (ip), vehicle: carboxymethylcellulose (CMC)) 1 of 10; (dose: 100.0 mg/kg/injection, schedule: Q01DX011 (oral), vehicle: methylcellulose (MC)) 4 of 10; (dose: 125.0 mg/kg/injection, schedule: Q01DX001 (ip), vehicle: carboxymethylcellulose (CMC)) 1 of 10 and 5 of 10; (dose: 125.0 mg/kg/injection, schedule: Q07DX002 (ip), vehicle: carboxymethylcellulose (CMC)) 0 of 10; (dose: 160.0 mg/kg/injection, schedule: Q01DX011 (im), vehicle: carboxymethylcellulose (CMC)) 6 of 12; (dose: 200.0 mg/kg/injection, schedule: Q01DX011 (oral), vehicle: methylcellulose (MC)) 1 of 10. Moreover, the survivor count (dose: 240.0 mg/kg/injection, schedule: Q01DX011 (im), vehicle: carboxymethylcellulose (CMC)) is 1 of 10 and 3 of 12; the survivor count (dose: 360.0 mg/kg/injection, schedule: Q01DX011 (im), vehicle: carboxymethylcellulose (CMC)) is on record as 3 of 12; the survivor count (dose: 360.0 mg/kg/injection, schedule: Q01DX011 (sc), vehicle: carboxymethylcellulose (CMC)) is 6 of 12. The T/C (dose: 35.0 mg/kg/injection, schedule: Q01DX001 (ip), vehicle: carboxymethylcellulose (CMC)) is 126 % of control.

With `Nc1cc(C(=O)O)nc(N)n1`, the T/C under setting [6] was 126 % of control [8 of 10 alive]. For the same compound, the survivor count is, setting by setting: (dose: 62.0 mg/kg/injection, schedule: Q01DX011 (ip), vehicle: methylcellulose (MC)) 5 of 10; (dose: 125.0 mg/kg/injection, schedule: Q01DX011 (ip), vehicle: methylcellulose (MC)) 4 of 10.

Source of the values: PubChem BioAssay AID180 (DTP/NCI, 2004).
